Test results from patent US20230190717A1, “P38 GAMMA INHIBITORS AND METHOD OF USE THEREOF” (City of Hope, priority 2017, published 2023).

Tested on: Hut78 cells
Assay: CellTiterGlo cell viability, Hut78
Assay type: cell-based
Conditions: Homo sapiens, HuT78, 72 h
Description: IC50 values were determined using […] software (Biosoft).

## O=C(CCCCCCC(=O)Nc1ccccc1)NO [SAHA, Vorinostat]
  IC50: 97 nM
